This is an account of results in patent US20120316326A1.

For this series, the target named is cardiac troponin I (cTnI) (Homo sapiens) (UniProt P19429). Put plainly: SPR. Conditions: Ni-NTA chip, protein immobilized (200 nM), aptamer 25-200 nM; purified recombinant protein; single-stranded DNA.

For at least one entry, the source does not settle the construct or the ends of the probe.

For orientation: Kd means the constant that tells how readily two partners part at equilibrium. With “ATGCGTTGAACCCTCCTGACCGTTTATCACATACTCCAGA [aptamer SEQ ID NO: 3]”, the dissociation constant Kd turned out to be 1.14 nM.

For “CAACTGTAATGTACCCTCCTCGATCACGCACCACTTGCAT [aptamer SEQ ID NO: 4]”, the Kd worked out at 3.25 nM.

For the sequence “CCCGACCACGTCCCTGCCCTTTCCTAACCTGTTTGTTGAT [aptamer SEQ ID NO: 2]”, the Kd came to 1.13 nM.

As to “CGCATGCCAAACGTTGCCTCATAGTTCCCTCCCCGTGTCC [aptamer SEQ ID NO: 6]”, the Kd was determined as 0.317 nM.

Consider “CGTGCAGTACGCCAACCTTTCTCATGCGCTGCCCCTCTTA [aptamer SEQ ID NO: 5]”, for which the dissociation constant (Kd) amounted to 0.27 nM.

Turning to “TCACACCCTCCCTCCCACATACCGCATACACTTTCTGATT [aptamer SEQ ID NO: 1]”, the Kd came to 3.41 nM.
